According to article PMC11229311, “Structural and functional investigation of the DHH/DHHA1 family proteins in Deinococcus radiodurans” (Nucleic Acids Research, 2024):
No constants are given. Whether binding was seen depends on the method and setting.

Molecular target: DrRecJ-like dimerization-defect mutant DrRecJ-like^m (F185A, Y213A, L220A) (Deinococcus radiodurans) (UniProt Q9RW43)
Assay: SEC; analytical gel filtration, Superdex 75 10/300 GL, 20 mM Tris pH 8.0, 100 mM NaCl, 1 mM TCEP; 300 ul of 1 mM protein loaded; calibrated with protein standards (6.5-75 kDa); both purified

B1: DrRecJ-like dimerization-defect mutant DrRecJ-like^m (F185A, Y213A, L220A) (enzyme, UniProt Q9RW43 1-338)
chain: MTAENSATPDYRRNVGAVADALLAHPGPIVVLSHENPDGDALGSVLGLSRALRTLGKTVLAPMTVPHYLSFLPQPGELTAPLESWPQGALAAVLDVDNNDPVRVAGADLTQFDGPVVNVDHHGTNLRRADAGVVDPSKPAAAMMVADVIDALGAPWSEAVATPLMLGLNTDTGNFAFDSVSAETAECAARLRAHGARIGWLNDQMRQNPQSYALLLREVAGKLEFLHGGRVVQTRVDEEMLARAGATWEQVENYVSMLRNAEGAQLAVMAKDYGDRVKFSLRSRGPVSAQNIAVALGGGGHVPAAGATVISSYAEARARLDAAIEAELARVDAQATAE
  binding: no binding (tested: 1 mM)
